The text below walks through data of US20080267908A1 (YEDA RESEARCH AND DEVELOPMENT, published 2008).

The chains behind the UniProt entries cited, without tags or fusion partners. Where a name states a change or a piece, a line headed by the entry shows the natural chain unless it says otherwise.
UniProt P24001: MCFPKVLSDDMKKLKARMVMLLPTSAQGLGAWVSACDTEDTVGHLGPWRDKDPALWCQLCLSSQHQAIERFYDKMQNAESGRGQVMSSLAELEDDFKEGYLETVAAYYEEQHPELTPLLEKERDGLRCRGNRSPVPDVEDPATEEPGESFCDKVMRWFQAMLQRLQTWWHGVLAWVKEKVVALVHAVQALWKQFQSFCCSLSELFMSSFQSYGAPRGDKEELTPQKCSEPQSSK
UniProt P24158: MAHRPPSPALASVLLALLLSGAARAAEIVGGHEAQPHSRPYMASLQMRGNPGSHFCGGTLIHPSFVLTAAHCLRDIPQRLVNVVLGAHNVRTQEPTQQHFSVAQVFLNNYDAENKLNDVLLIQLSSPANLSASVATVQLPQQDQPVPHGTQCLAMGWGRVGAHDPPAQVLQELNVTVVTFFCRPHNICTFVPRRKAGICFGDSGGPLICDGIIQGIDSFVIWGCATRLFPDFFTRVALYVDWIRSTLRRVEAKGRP

No constants are given. Whether binding was seen depends on the method and setting. Binding can be weak; no strength is given.

This assay has as its target T1, recombinant human IL-32α produced in E. coli (human) (UniProt P24001).
T1 sequence: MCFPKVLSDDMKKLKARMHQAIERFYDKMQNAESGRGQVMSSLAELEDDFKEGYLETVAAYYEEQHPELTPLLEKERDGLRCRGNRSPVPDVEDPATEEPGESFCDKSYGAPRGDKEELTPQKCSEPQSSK
The experiment in a line: SPR (BIAcore), IL-32 immobilized.

As for “human urinary PR-3 inactivated by phenyl methyl sulfonyl fluoride (PMSF) (from UniProt P24158) (enzyme)”, the binding entry was “binds”.
